By UniProt entry, the sequences of proteins in these tests, tags left out.
UniProt Q8CDG1: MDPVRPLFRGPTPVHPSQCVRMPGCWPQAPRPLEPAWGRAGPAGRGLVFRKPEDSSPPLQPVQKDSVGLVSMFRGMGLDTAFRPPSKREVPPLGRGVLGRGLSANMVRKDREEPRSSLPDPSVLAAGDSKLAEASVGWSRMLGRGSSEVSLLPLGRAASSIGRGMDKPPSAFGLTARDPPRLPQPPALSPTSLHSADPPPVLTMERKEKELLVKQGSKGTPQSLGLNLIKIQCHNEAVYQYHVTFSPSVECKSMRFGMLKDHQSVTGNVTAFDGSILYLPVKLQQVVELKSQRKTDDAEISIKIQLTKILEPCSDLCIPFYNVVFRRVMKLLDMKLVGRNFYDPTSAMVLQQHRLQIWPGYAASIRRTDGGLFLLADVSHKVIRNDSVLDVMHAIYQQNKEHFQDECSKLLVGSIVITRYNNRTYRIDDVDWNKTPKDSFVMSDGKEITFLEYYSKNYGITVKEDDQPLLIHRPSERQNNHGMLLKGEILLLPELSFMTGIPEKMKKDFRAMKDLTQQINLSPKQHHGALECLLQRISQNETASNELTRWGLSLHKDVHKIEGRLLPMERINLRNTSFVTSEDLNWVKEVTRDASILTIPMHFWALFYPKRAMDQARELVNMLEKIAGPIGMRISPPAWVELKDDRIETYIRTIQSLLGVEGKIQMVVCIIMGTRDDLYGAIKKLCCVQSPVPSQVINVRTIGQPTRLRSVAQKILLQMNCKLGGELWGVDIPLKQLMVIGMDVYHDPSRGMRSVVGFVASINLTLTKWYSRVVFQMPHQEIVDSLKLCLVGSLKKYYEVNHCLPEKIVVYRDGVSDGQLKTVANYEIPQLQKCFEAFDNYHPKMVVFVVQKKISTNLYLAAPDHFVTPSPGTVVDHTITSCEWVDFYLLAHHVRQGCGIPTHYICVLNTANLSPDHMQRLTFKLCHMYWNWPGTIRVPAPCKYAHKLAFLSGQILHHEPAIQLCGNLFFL

According to article PMC12624062:

T1: ASZ1 (endogenous, mouse testis) (mouse (endogenous in testis)) (UniProt Q8VD46)
T1 sequence: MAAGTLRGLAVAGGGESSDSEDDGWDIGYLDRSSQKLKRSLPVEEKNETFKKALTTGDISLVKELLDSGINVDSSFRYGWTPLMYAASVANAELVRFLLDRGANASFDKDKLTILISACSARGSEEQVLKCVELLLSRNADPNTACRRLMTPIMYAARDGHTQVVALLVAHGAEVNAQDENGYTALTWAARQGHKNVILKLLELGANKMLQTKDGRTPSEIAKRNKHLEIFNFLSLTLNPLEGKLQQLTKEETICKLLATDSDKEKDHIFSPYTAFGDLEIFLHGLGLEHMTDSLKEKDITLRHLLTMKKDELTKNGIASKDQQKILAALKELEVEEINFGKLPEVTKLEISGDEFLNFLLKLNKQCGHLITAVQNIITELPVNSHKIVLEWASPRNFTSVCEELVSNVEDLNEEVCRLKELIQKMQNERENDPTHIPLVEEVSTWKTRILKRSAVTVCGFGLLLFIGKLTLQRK

B1: GPAT2 (endogenous, mouse testis) (protein, UniProt Q14DK4 1-801)
chain: MDTMLKSNPQTQQRSNHNGQETSLWSSSFGMKMEAITPFLGKYRPFMGRCCQTCTPKSWESLFHRSIMDLGFCNVILVKEENTRFRGWLVRRLCYFLWSLEQHIPTSFDASQKIMENTGVQNLLSGRVPGAAGEGQAPELVKKEVQRILGHIQTTPRPFLLRLFSWALLWFLNRLFLNVQLHKGQMKMVQKAVQEGSPLVFLSTHKSLLDGFLLPFVLFSQGLGVVRVALDSRTCSPALRALLRKLGGLFLPPEVNLSLDNSEGILARAVVRATVEELLTSGQPLLIFLEEPPGSPGPRLSALGQAWLGVVIQAVQAGIISDATLVPVAIAYDLVPDAPCNMNHDLAPLGLWTGALAVFRRLCNCWGCNRRVCVRVHLAQPFSLQEYTINARSCWDSRQTLEHLLQPIVLGECSVVPDTEKEQEWTPPTGLLLALKEEDQLLVRRLSRHVLSASVASSAVMSTAIMATLLLLKHQKGVVLSQLLGEFSWLTEETLLRGFDVGFSGQLRCLAQHTLSLLRAHVVLLRVHQGDLVVVPRPGPGLTHLARLSMELLPTFLSEAVGACAVRGLLAGRVPPEGPWELQGIELLSQNELYRQILLLLHLLPQDLLLPQPCQSSYCYCQEVLDRLIQCGLLVAEETPGSRPACDTGRQHLSAKLLWKPSGDFTDSESDDFEEPGGRCFRLSQQSRCPDFFLFLCRLLSPILKAFAQAATFLHLGQLPDSEVAYSEKLFQFLQACAQEEGIFECADPNLAISAVWTFKDLGVLQEMPSPTGPQLHLSPTFATRDNQDKLEQFIRQFICS
B2: MAEL (endogenous, mouse testis) (protein, UniProt Q8BVN9 1-434)
chain: MPNRRASRNAYYFFVQEKIPELRRRGLPVARVADAIPYCSADWALLREDEKEKYSEMAREWRAAQGKDSGPSEKQKLVSTPLRRPGMLVPKPSISPPDMSNLSIKSDQALLGGIFYFLNIFSHGELPPHCEQRFLPCEIGCVKYSLQEGIMADFHSFIHPGEIPRGFRFHCQAASDSSHKIPISNFEFGHDQATVLQNLYKFIHPNPGNWPPIYCKSDDRARVNWCLKRMERASEIRQDLELLTVEDLVVGIYQQKFLKEPSKTWVRSLLDVAMWDYSSNTRCKWHEENDILFCALAVCKKIAYCISNSLATLFGIQLTGAHVPLQDYEASNSVTPKMVVLDAGRYQKLRVESPGFCHFNSYNQEQRSNTSTGYYPSGVKISGPHSSVRGRGITRLLESISNSSNNIHRFSSCETSLSPYTPQKDGYKPFSSFS
B3: TDRD1 (endogenous, mouse testis) (protein, UniProt Q99MV1 1-1172)
chain: MMPRNNLEASTCKMAEPFNFEKKESKPPPQDPLRSPVAQHNHPTFRLKSPENGNTKNNFLLCEQNKQYLASQEDSSVVSSNPAVVNGEVGGSKGDRKPPPTGNPVSPLSLGNSSPPNQVKTKPSSNVTPEKSKKSHKLFENALSVNNPALFNSLGPPLRSTTCHRCGLFGSLRCSQCKQTYYCSTACQRRDWSSHSTICRPVQQSLNKLEDNKSPFETKAIEVKSEVDCPPGVTKEITAGAERVMFSDLRSLQLKKTMEIKGTVTEFKHPSNFYIQLYSSEVLENMNQLSTSLKETYANVVPEDGYLPVKGEVCVAKYTVDQTWNRAIVQAVDVLQRKAHVLYIDYGNEEMIPIDSVHPLSRGLDLFPPSAIKCCVSGVIPTAGEWSEGCVAAVKALLFEQFCSVKVMDILEEEVLTCAVDLVLQSSGKQLDHVLVEMGYGVKPGEQSSTEQSVDHSALEDVGRVTVESKIVTDRNALIPKVLTLNVGDEFCGVVAHIQTPEDFFCQQLQSGHKLAELQESLSEYCGHVIPRSDFYPTIGDVCCAQFSEDDQWYRASVLAYASEESVLVGYVDYGNFEILSLKRLCPIIPKLLDLPMQALNCVLAGVKPSLGIWTPEAVCVMKEMVQNRMVTVRVVGMLGTRALVELIDKSVAPHVSASKALIDSGFAIKEKDVADKGSSMHTASVPLAIEGPAEALEWTWVEFTVDETVDVVVCMMYSPGEFYCHFLKDDALEKLDDLNQSLADYCAQKPPNGFKAEIGRPCCAFFSGDGNWYRALVKEILPSGNVKVHFVDYGNVEEVTTDQLQAILPQFLLLPFQGMQCWLVDIQPPNKHWTKEATARFQACVVGLKLQARVVEITANGVGVELTDLSTPYPKIISDVLIREQLVLRCGSPQDSLMSRPANQHKQIDSHRVQASPSAEQWKTMELPVNKTIAANVLEIISPALFYAIPSEMSENQEKLCVLAAELLEHCNAQKGQPAYRPRTGDACCAKYTNDDFWYRAIVLETSESDVKVLYADYGNIETLPLSRVQPIPASHLELPFQIIRCSLEGPMELNGSCSQLVMELLRNAMLNQSVVLSVKAISKNVHAVSVEKCSENGMINIAENLVMCGLAENLTSKRKSASTKEIPHSRDCCCTELQKQIEKHEQILLFLLNNPTNQSKFTEMKKLLRS
B4: TDRD7 (endogenous, mouse testis) (protein, UniProt Q8K1H1 1-1086)
chain: MLEADLVSKMLRAVLQSHKNGIVLPRLQGEYRSLTGDWIPFKQLGYPTLEAYLRSVPAVVRIEASRSGEIVCYAVACTETARIAQLVARQRTSKRKIGRQINCQMRVKKAMPFFLEGKPKATLRQPGFASDYSISRKPNSALLRDRGSALGVKADVDMPPYPDTPVQRHASMSANSRFSPKSSLPASFQTHISRACPTEVNDNLNQTVEKPNITPPASYTNKMDEVQNRIKEILDKHNNGIWISKLPHFYKEFYKEDLNQGVLQQFEHWPHICTVEKPCGGGQDSLLYPARREQPLKSDQDPEKELPPPPPAPKQEVPSQGSPAVMPDVKEKVAELLGKYSSGLWASALPKAFEDMYKVKFPEDALKNLASLSDVCTINYISGNTQKAILYAKLPLPTDKILKDEGQAQGDFDIKSMIEQEYLQIEKNMAESADEFLEDITVPPLVIPTEASPSVLVVELSNTNDVVIRYVGKDYSAAQELMEDEMKEFYSKNPRVTPIQTVHVGQLLAVNAEEDAWLRAQIISTDENKIKVCYVDYGFCENIEKSKAYRLNPRFCSLSFQATKCKLAGLEVLNDDPDLVKAVESLTCGKIFAVEILDKSDVPLVVLYDTSGEDDININATCLKAICDRSLQVHLQVDAMYTNVKVTNICSDGTLYCQVPCKGLNKLNDLLHKTEDYFHCKHMTSEYFISLPFCGKICLFHCKGKWLRVEITNVHSSRALDVQFLDSGNSTSVKVSELREIPPRFLQEMLAIPPQAIKCCLADLPQSIGMWTPDAVLWLRDSVLNCSDCSIKVTKMDETKGVAYVYLFTPNNFPDPHRSINRQITNADLWKHQKDVFLSAVSTAASSPGNRNGGTPAPGSPAESLRKSHPEVIKKSVLDHTSSFSLEELPPPVHLSRSGEHMDVYVPVACHPGHFVIQPWQEIHKLEVLMEEMILYYSVSEERHIAVERDQVYAAKVENKWYRVLLKGILTNGLVSVYELDYGKHELVNIRKVQPLVDVFRKLPFQAVTAQLAGVKCSQWSEEASMVFRNHVEKKALVALVQTVVEHTNPWDRKVVLYLVDTSLPDTDTWIHDFMSQYLLELSKVN
B5: ASZ1 (endogenous, mouse testis) (protein, UniProt Q8VD46 1-475)
chain: T1 sequence
B6: PNLDC1 (endogenous, mouse testis) (protein, UniProt B2RXZ1 1-531)
chain: MDVGADEFEQSLPLLQELVAGADFVGLDIEFTGLRSNLSRPQQISLFDLPSEWYLKTRQSVQQFTICQIGLSMFSSIEGESNKYVAHSCNFFLFPTTFGILDSEFSFQASSVQFLNQYGFDYNKFLKNGIPYMNEEQEKKIKHSILRGNWRVRSSLDKDQIKVVIDKVTQWLDLAEEGDQMTLPGIAGFQAFEVQLVLRQALPNIWTVLKEEWVIVKKVSQPQRWYLEHASCDQVSCWKEQILLSARGFSVFFQMLVKAQKPLVGHNMMMDLLHLHEKFFRPLPESYDQFKQNIHSLFPVLIDTKNVTKDIWKELRFPRVSNLLEVYEVLSSNLNPTKDSGPVIIHARQCKKYAETKCPHEAAYDAFLCGSVLLKVAHLLLQRVHGNGAVHEPAFPQYLDVLAPYVNQVNLIRAGVPKINFSGPDYPSIRPPVLILTVKRWPGVSEQQVYREFQNLCKFDVRRFTRSQFLLLTNKFKDARSVLKEYRNHPTLQVSLYRSWRHSPNITCLLQVCSIVTTWAMIAFLLGRPMP
B7: HENMT1 (endogenous, mouse testis) (protein, UniProt Q8CAE2 1-395)
chain: MEMAESIPCNSVVGGNFKEVSPEKVIRFKPPLYKQRYQFVRDLVDRHEPKKVADLGCGDAKLLKLLKIYPCIQLLVGVDINEEKLHSNGHRLSPYLGEFVKPRDLDLTVTLYHGSVVERDSRLLGFDLITCIELIEHLDSDDLARFPDVVFGYLSPAMVVISTPNAEFNPLFPTVTLRDADHKFEWSRMEFQTWALHVANCYNYRVEFTGVGTPPAGSEHVGYCTQIGVFTKNGGKLSKPSVSQQCDQHVYKPVYTTSYPSLQQEKVLKFVLVGELLIQVDRLRLRYQRMLRDREKDRGPKPGDMDSCPAPHLLLGAVFTEAEKARIESSPKPFCEGEKFYIPLQRLLTYPKLHRLCADEDRVRSLIADSVCLSSDGSAVVVDLHNSWDYRPEEN

target: T1, ASZ1 (endogenous, mouse testis) (mouse (endogenous in testis)); test: affinity purification with mass spectrometry; P20 wild-type mouse testis lysates; IP with PIWIL2, ASZ1 or TDRD1 antibodies against rabbit IgG control; Protein A/G agarose; LC-MS; n = 3

binding, binds:
B1

target: PIWIL2 (endogenous, mouse testis) (mouse (endogenous in testis)) (UniProt Q8CDG1); test: as above

binding, binds:
B2
B3
B4
B5
B6
B7

Results are given in words; binding and its absence hold for the method and conditions named. Binding seen in cells or lysates may run through a third protein. Here binding means that the protein was enriched with, or labelled near, the bait; the list need not be complete.
